# Assay results as given in PubChem BioAssay AID1487 (National Center for Advancing Translational Sciences (NCATS), 2009).
# The list shows a part of the results. The main result of the screen is listed elsewhere. These columns were measured beside it and carry no call. Most of these compounds were active or inconclusive in the main read-out, so they are no random draw. Potencies come from curve fits of mixed quality, noted in brackets.
# Assay: qHTS Assay for Modulators of Lamin A Splicing
# Settings: HeLa LMNA splicing GFP/RFP minigene ratio, 48 h
# Procedure, shortened: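 S3 HeLa cells stably expressing lamin A-EGFP splicing minigene plus DsRed2, 600 cells/well, 48 h compound exposure at 37C. Laser-scanning cytometry; analysed as GFP (500-530 nm)/RFP (575-640 nm) total intensity ratio; 0.5% DMSO vehicle.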
# [1] = measured here: RFP viability control channel
# [2] = measured here: GFP splicing reporter channel
Structure (SMILES),AC50 [1],AC50 [2]
COc1ccc(-c2[nH]ncc2CN2CCN(c3ccccn3)CC2)c(OC)c1,"12.6 µM [falling, partial curve, poor fit]",
Cc1c(NC(=O)C2CCCCC2)cc(C(=O)N2CCOCC2)cc1[N+](=O)[O-],,"0.0224 µM [falling, full curve, poor fit]"
Cc1ccc2nc3c(c(Nc4ccc5c(c4)OCCO5)c2c1)CCC3,"15.8 µM [rising, partial curve]","17.8 µM [rising, single point]"
C(=N\c1nccs1)/c1cccnc1,"5.62 µM [rising, single point]",
COc1ccc(-c2cn(-c3ccc(OC)cc3)c3[n+]2-c2ccccc2CC3)cc1,"3.98 µM [rising, full curve]",
O=C(CN1C(=O)C2CCCCC2C1=O)Nc1nc(-c2ccccn2)cs1 (stereo not given),"17.8 µM [rising, single point]",
O=C(Nc1cccc(O)c1)c1cc(S(=O)(=O)N2CCCC2)ccc1Cl,"25.1 µM [rising, single point]","22.4 µM [rising, single point]"
O=C(Nc1ccc2nc(C3CC3)n(Cc3ccc(F)cc3)c(=O)c2c1)c1ccco1,"25.1 µM [rising, single point]","35.5 µM [rising, single point]"
Cc1ccc(OCC(=O)Nc2ccc(Cl)c(-c3nc4ccccc4[nH]3)c2)cc1C,,"35.5 µM [falling, single point]"
O=c1c(-c2ccc(F)cc2)nc2cnc(Oc3cccc(Cl)c3)nc2n1C[C@H]1CCCO1,,"14.1 µM [falling, partial curve, poor fit]"
COC(CNC(=S)Nc1ccc([N+](=O)[O-])cc1)OC,"35.5 µM [rising, single point]",
COc1cc(/C=C/c2ccc3cccc([N+](=O)[O-])c3n2)ccc1OCC#N,"15.8 µM [rising, partial curve, poor fit]",
COc1cc(Cc2cnc(N)nc2N)cc(OC)c1OC,,"6.31 µM [rising, single point]"
O=C(c1ccc2[nH]c3c(c2c1)CCCC3)N1CCN(c2ccc(F)cc2)CC1,"15.8 µM [rising, single point]",
CC(=O)Nc1ccc(OCC(O)Cn2c(C)nc3ccccc32)cc1 (stereo not given),"35.5 µM [rising, single point]",
Cc1ccc(S(=O)(=O)Nc2nc3ccccc3nc2N2CCc3ccccc3C2)cc1,"25.1 µM [falling, single point]",
COc1ccc(CNC(=O)COC(=O)c2n[nH]c3ccccc23)cc1OC,"12.6 µM [rising, partial curve]",
CC1CCN(C(=O)/C(=C/c2ccccc2Cl)c2ccccc2)CC1,"35.5 µM [rising, single point]","35.5 µM [rising, single point]"
CN(C)C(=O)c1ccc(-c2nc(Nc3ccncc3)c3ccccc3n2)cc1,"12.6 µM [rising, single point]",

# Of the compounds above, these have fluorine:
Structure (SMILES),AC50 [1],AC50 [2]
O=C(Nc1ccc2nc(C3CC3)n(Cc3ccc(F)cc3)c(=O)c2c1)c1ccco1,"25.1 µM [rising, single point]","35.5 µM [rising, single point]"
O=c1c(-c2ccc(F)cc2)nc2cnc(Oc3cccc(Cl)c3)nc2n1C[C@H]1CCCO1,,"14.1 µM [falling, partial curve, poor fit]"
O=C(c1ccc2[nH]c3c(c2c1)CCCC3)N1CCN(c2ccc(F)cc2)CC1,"15.8 µM [rising, single point]",

# Remaining list, next part.

Structure (SMILES),AC50 [1],AC50 [2]
Cc1ccc(CNC(=O)c2nc(-c3ccc(Cl)cc3)n3c2CCCCC3)cc1,"31.6 µM [rising, single point]",
CCOC(=O)c1c(C)oc2c1c(C(c1cccnc1)N1CCN(C)CC1)c(O)c1ccccc12 (stereo not given),,"22.4 µM [falling, single point]"
Cc1ccc(N=Cc2cc3c(cc2O)OC(N)=C(C#N)C3c2ccccc2)cc1 (stereo not given),"6.31 µM [falling, single point]","20 µM [falling, partial curve]"
COc1cccc(/C=N/Nc2nc3ccccc3n3cnnc23)c1O,"10 µM [rising, partial curve, poor fit]",
O=C(NCC1(c2ccccc2)CCCC1)c1ccc(Br)o1,"17.8 µM [rising, partial curve]","8.91 µM [rising, partial curve, poor fit]"
CCOC(=O)C1(Cc2cccc(OC)c2)CCN(Cc2cccc(O)c2)CC1,"12.6 µM [falling, partial curve]","12.6 µM [falling, partial curve]"
CN(C)S(=O)(=O)c1cccc(NC(=O)c2ccncc2)c1,"14.1 µM [rising, partial curve]",
CCC(C)(C)n1nnnc1C(c1cccs1)N1CCN(Cc2ccccc2)CC1 (stereo not given),"20 µM [rising, single point]",
C=CCc1cccc(/C=N/NC(=O)C(C)Nc2ccc(C)cc2)c1O (stereo not given),"35.5 µM [rising, single point]","17.8 µM [rising, single point]"
Nc1nc(-c2ccc(Cl)cc2Cl)cn1N,"35.5 µM [rising, single point]",
CCCSc1nc2c(c(=O)n(C)c(=O)n2C)n1Cc1ccc(C)cc1,"11.2 µM [rising, single point]","10 µM [rising, partial curve]"
CCCC(=O)NC(c1cccs1)c1cc([N+](=O)[O-])c2cccnc2c1O (stereo not given),"3.98 µM [rising, full curve, poor fit]",
COc1ccc(Cn2nnnc2CN2CCC(c3nc4ccccc4s3)CC2)cc1,"14.1 µM [rising, partial curve]","12.6 µM [rising, partial curve]"
COCCCNCCOCCSc1ccc(Cl)cc1,,"12.6 µM [rising, single point]"
Clc1cccc(CNc2nnnn2-c2ccccc2)c1,"10 µM [rising, partial curve]",
Cc1cnc(C(=O)OCC(=O)c2csc(N3CCCCC3)n2)cn1,"5.62 µM [rising, single point]",
Cc1cccc(NS(=O)(=O)c2ccc3c(c2)Cc2cc(S(=O)(=O)Nc4cccc(C)c4C)ccc2-3)c1C,"7.08 µM [rising, partial curve, poor fit]",
O=C(CCSCc1ccccc1F)N1CCN(c2ccc(Cl)cc2)CC1,,"0.00316 µM [falling, full curve, poor fit]"
COc1ccc(NC(=O)C(C)N2c3cccc4cccc(c34)S2(=O)=O)cc1OC (stereo not given),"4.47 µM [rising, full curve]",

Structure (SMILES),AC50 [1],AC50 [2]
C/C(=N\NC(=O)CCc1ccccc1)C1C(=O)c2ccccc2C1=O,"11.2 µM [falling, partial curve]","1 µM [falling, full curve]"
C=CCn1c(SCC(=O)N2CCc3ccccc3C2)nc2sc(C)c(C)c2c1=O,"17.8 µM [rising, single point]",
C/C(CCc1ccccc1)=N\NC(=O)c1ccccc1[N+](=O)[O-],"0.0398 µM [rising, full curve, poor fit]",
Cc1cccc(-c2nnc3sc(-c4ccccc4C)nn23)c1,"35.5 µM [rising, single point]","35.5 µM [rising, single point]"
COCCn1c(SCC(=O)Nc2cc(C)on2)nnc1-c1ccco1,"3.16 µM [falling, partial curve, poor fit]",
O=S(=O)(c1cccc(NC(=S)N2CCN(c3ccccc3)CC2)c1)C(F)F,"11.2 µM [rising, partial curve]",
Cc1cccc(NC(=O)c2ccc3nsnc3c2)c1C,"3.98 µM [falling, partial curve]",
Cc1cc(C)c2oc(C(=O)Nc3nnc(C(C)C)s3)cc(=O)c2c1,"0.00631 µM [rising, full curve, poor fit]","0.00891 µM [rising, full curve, poor fit]"
NC(=O)c1sc2nc3c(c(-c4cccs4)c2c1N)CCCCC3,"0.0891 µM [rising, full curve, poor fit]","0.794 µM [rising, partial curve]"
O=C(O)C[CH2][Ge](=[O])[O][Ge](=[O])[CH2]CC(=O)O,"5.62 µM [rising, single point]","1.26 µM [falling, single point]"
CCC(=O)NC(=S)Nc1cccc(-c2nc3ncccc3o2)c1,,"35.5 µM [rising, single point]"
Cc1cccc(N(C)C(=O)CN(C)S(=O)(=O)c2ccc3[nH]c4c(c3c2)CCCC4)c1,"35.5 µM [rising, single point]",
O=C(CN1C(=O)C2C3C=CC(C4CC34)C2C1=O)Oc1ccccc1 (stereo not given),,"5.01 µM [falling, single point]"
C/C(=N\NC(=S)Nc1cc(S(=O)(=O)N2CCOCC2)ccc1Cl)c1ccccc1F,"15.8 µM [rising, partial curve]",
CCOc1ccccc1N1C(=O)CC(Sc2n[nH]c(-c3ccccc3)n2)C1=O (stereo not given),"3.98 µM [falling, partial curve, poor fit]","14.1 µM [falling, single point]"
O=C(c1cccc(C(F)(F)F)c1)N1CCOC12CCN(c1ncc(C(F)(F)F)cc1Cl)CC2,"12.6 µM [rising, partial curve]","5.62 µM [rising, full curve]"
COc1ccc(CN(CCC(c2ccccc2)c2ccc(OC(C)C)cc2)C(=O)CCl)cc1OC (stereo not given),"12.6 µM [falling, partial curve]","7.94 µM [falling, partial curve, poor fit]"
Cc1cccc(NC(=O)CSc2nc(C3CCCC3)nc3c2c(=O)n(C)c(=O)n3C)c1C,,"0.891 µM [rising, partial curve]"
CS(=O)(=O)N1CCC(Oc2ccccc2C(=O)N2CCN(CC3CC3)CC2)CC1,"39.8 µM [falling, partial curve, poor fit]",
